{"source": "the supplement of paper PMC8728848", "assay_in_all_cases": "glycan array binding signal (z-score within array); higher = stronger binding", "settings_in_all_cases": "glycan notation: IUPAC condensed, linker removed", "key": {"[1]": {"molecular_target": "GlcNAc(b1-4)[GlcNAc(b1-6)]GalNAc", "procedure,_shortened": "(§1)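 The binding signal is a Z-score computed within each array. Data were drawn from 3228 arrays in the Consortium for Functional Glycomics database, restricted to those with a known protein sequence. Scores were averaged over arrays of the same protein sequence at different concentrations or buffers, and over linkers, and negative values can be taken as non-binding.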"}, "[2]": {"molecular_target": "GlcNAc(b1-6)Gal(b1-4)GlcNAc", "procedure,_shortened": "as §1"}, "[3]": {"molecular_target": "GlcNAc(b1-6)GalNAc", "procedure,_shortened": "as §1"}, "[4]": {"molecular_target": "GlcNAc6S(b1-3)Gal(b1-4)GlcNAc", "procedure,_shortened": "as §1"}, "[5]": {"molecular_target": "Kdn(a2-3)Gal(b1-3)GalNAc", "procedure,_shortened": "as §1"}, "[6]": {"molecular_target": "Kdn(a2-3)Gal(b1-3)GlcNAc", "procedure,_shortened": "as §1"}, "[7]": {"molecular_target": "Kdn(a2-3)Gal(b1-4)Glc", "procedure,_shortened": "as §1"}, "[8]": {"molecular_target": "Kdn(a2-3)Gal(b1-4)GlcNAc", "procedure,_shortened": "as §1"}, "[9]": {"molecular_target": "Kdn(a2-3)Gal(b1-4)[Fuc(a1-3)]GlcNAc", "procedure,_shortened": "as §1"}, "[10]": {"molecular_target": "Kdn(a2-6)Gal(b1-4)GlcNAc", "procedure,_shortened": "as §1"}, "[11]": {"molecular_target": "Man(a1-2)Man(a1-2)Man(a1-3)Man", "procedure,_shortened": "as §1"}, "[12]": {"molecular_target": "Man(a1-2)Man(a1-2)Man(a1-6)[Man(a1-3)]Man", "procedure,_shortened": "as §1"}, "[13]": {"molecular_target": "Man(a1-2)Man(a1-3)Man", "procedure,_shortened": "as §1"}, "[14]": {"molecular_target": "Man(a1-2)Man(a1-3)[Man(a1-2)Man(a1-6)]Man", "procedure,_shortened": "as §1"}, "[15]": {"molecular_target": "Man(a1-2)Man(a1-3)[Man(a1-2)Man(a1-6)]Man(a1-6)[Man(a1-2)Man(a1-2)Man(a1-3)]Man", "procedure,_shortened": "as §1"}, "[16]": {"molecular_target": "Man(a1-2)Man(a1-3)[Man(a1-2)Man(a1-6)]Man(a1-6)[Man(a1-2)Man(a1-2)Man(a1-3)]Man(b1-4)GlcNAc(b1-4)GlcNAc", "procedure,_shortened": "as §1"}, "[17]": {"molecular_target": "Man(a1-2)Man(a1-3)[Man(a1-6)]Man(a1-6)[Man(a1-2)Man(a1-3)]Man(b1-4)GlcNAc(b1-4)GlcNAc", "procedure,_shortened": "as §1"}, "[18]": {"molecular_target": "Man(a1-2)Man(a1-6)[Man(a1-3)]Man(a1-6)[Man(a1-2)Man(a1-2)Man(a1-3)]Man", "procedure,_shortened": "as §1"}, "[19]": {"molecular_target": "Man(a1-2)Man(a1-6)[Man(a1-3)]Man(a1-6)[Man(a1-2)Man(a1-2)Man(a1-3)]Man(b1-4)GlcNAc(b1-4)GlcNAc", "procedure,_shortened": "as §1"}, "[20]": {"molecular_target": "Man(a1-3)[Man(a1-6)]Man", "procedure,_shortened": "as §1"}, "[21]": {"molecular_target": "Man(a1-3)[Man(a1-6)]Man(a1-6)[Man(a1-2)Man(a1-3)]Man(b1-4)GlcNAc(b1-4)GlcNAc", "procedure,_shortened": "as §1"}, "[22]": {"molecular_target": "Man(a1-3)[Man(a1-6)]Man(a1-6)[Man(a1-3)]Man", "procedure,_shortened": "as §1"}, "[23]": {"molecular_target": "Man(a1-3)[Man(a1-6)]Man(a1-6)[Man(a1-3)]Man(b1-4)GlcNAc(b1-4)GlcNAc", "procedure,_shortened": "as §1"}, "[24]": {"molecular_target": "Man(a1-3)[Man(a1-6)]Man(b1-4)GlcNAc(b1-4)GlcNAc", "procedure,_shortened": "as §1"}, "[25]": {"molecular_target": "Man(a1-3)[Man(a1-6)]Man(b1-4)GlcNAc(b1-4)[Fuc(a1-6)]GlcNAc", "procedure,_shortened": "as §1"}, "[26]": {"molecular_target": "Man(a1-6)Man", "procedure,_shortened": "as §1"}, "[27]": {"molecular_target": "Man(b1-4)GlcNAc", "procedure,_shortened": "as §1"}, "[28]": {"molecular_target": "MurNAc(b1-4)GlcNAc", "procedure,_shortened": "as §1"}, "[29]": {"molecular_target": "Neu5Ac(a2-3)Gal", "procedure,_shortened": "as §1"}, "[30]": {"molecular_target": "Neu5Ac(a2-3)Gal(b1-3)GalNAc", "procedure,_shortened": "as §1"}, "[31]": {"molecular_target": "Neu5Ac(a2-3)Gal(b1-3)GalNAc(b1-3)Gal(a1-4)Gal(b1-4)Glc", "procedure,_shortened": "as §1"}, "[32]": {"molecular_target": "Neu5Ac(a2-3)Gal(b1-3)GalNAc(b1-4)[Neu5Ac(a2-3)]Gal(b1-4)Glc", "procedure,_shortened": "as §1"}, "[33]": {"molecular_target": "Neu5Ac(a2-3)Gal(b1-3)GalNAc(b1-4)[Neu5Ac(a2-8)Neu5Ac(a2-3)]Gal(b1-4)Glc", "procedure,_shortened": "as §1"}, "[34]": {"molecular_target": "Neu5Ac(a2-3)Gal(b1-3)GalNAc6S", "procedure,_shortened": "as §1"}, "[35]": {"molecular_target": "Neu5Ac(a2-3)Gal(b1-3)GlcNAc", "procedure,_shortened": "as §1"}, "[36]": {"molecular_target": "Neu5Ac(a2-3)Gal(b1-3)GlcNAc(b1-2)Man", "procedure,_shortened": "as §1"}, "[37]": {"molecular_target": "Neu5Ac(a2-3)Gal(b1-3)GlcNAc(b1-2)Man(a1-3)[GlcNAc(b1-4)][Neu5Ac(a2-3)Gal(b1-3)GlcNAc(b1-2)Man(a1-6)]Man(b1-4)GlcNAc(b1-4)GlcNAc", "procedure,_shortened": "as §1"}}, "note": "Some of the results follow."}
{"binder": "FliC (Clostridium difficile) (protein) MRVNTNVSALIANNQMGRNVNGQSKSMEKLSSGVRIKRAADDAAGLAISEKMRAQIKGLDQAGRNVQDGISVVQTAEGSLEETGNILQRMRTLSLQSANEINNTEEREKIADELTQLKDEIERISSSTEFNGKKLLDGTSSTIRLQVGASYGTNVSGTSNNNNEIKIQLVNTASIMASAGITTASIGSMKAGGTTGTDAAKTMVSSLDAALKSLNSSRAKLGAQQNRLESTQNNLNNTLENVTAAESRIRDTDVASEMVNLSKMNILVQASQSMLAQANQQPQGVLQLLG", "values": [{"measurement": "glycan array binding signal (z-score)", "setting": "[1]", "result": 0.524}, {"measurement": "glycan array binding signal (z-score)", "setting": "[2]", "result": 0.491}, {"measurement": "glycan array binding signal (z-score)", "setting": "[3]", "result": -0.08}, {"measurement": "glycan array binding signal (z-score)", "setting": "[4]", "result": 0.071}, {"measurement": "glycan array binding signal (z-score)", "setting": "[5]", "result": 0.916}, {"measurement": "glycan array binding signal (z-score)", "setting": "[6]", "result": 0.045}, {"measurement": "glycan array binding signal (z-score)", "setting": "[7]", "result": 0.681}, {"measurement": "glycan array binding signal (z-score)", "setting": "[8]", "result": -0.755}, {"measurement": "glycan array binding signal (z-score)", "setting": "[9]", "result": -0.419}, {"measurement": "glycan array binding signal (z-score)", "setting": "[10]", "result": -0.178}, {"measurement": "glycan array binding signal (z-score)", "setting": "[11]", "result": -0.487}, {"measurement": "glycan array binding signal (z-score)", "setting": "[12]", "result": -0.162}, {"measurement": "glycan array binding signal (z-score)", "setting": "[13]", "result": -0.455}, {"measurement": "glycan array binding signal (z-score)", "setting": "[14]", "result": 0.04}, {"measurement": "glycan array binding signal (z-score)", "setting": "[15]", "result": -0.261}, {"measurement": "glycan array binding signal (z-score)", "setting": "[16]", "result": 0.156}, {"measurement": "glycan array binding signal (z-score)", "setting": "[17]", "result": 0.653}, {"measurement": "glycan array binding signal (z-score)", "setting": "[18]", "result": 0.153}, {"measurement": "glycan array binding signal (z-score)", "setting": "[19]", "result": -0.576}, {"measurement": "glycan array binding signal (z-score)", "setting": "[20]", "result": -0.471}, {"measurement": "glycan array binding signal (z-score)", "setting": "[21]", "result": 3.18}, {"measurement": "glycan array binding signal (z-score)", "setting": "[22]", "result": -0.284}, {"measurement": "glycan array binding signal (z-score)", "setting": "[23]", "result": 0.124}, {"measurement": "glycan array binding signal (z-score)", "setting": "[24]", "result": -0.344}, {"measurement": "glycan array binding signal (z-score)", "setting": "[25]", "result": 0.353}, {"measurement": "glycan array binding signal (z-score)", "setting": "[26]", "result": 0.475}, {"measurement": "glycan array binding signal (z-score)", "setting": "[27]", "result": -0.046}, {"measurement": "glycan array binding signal (z-score)", "setting": "[28]", "result": 0.369}, {"measurement": "glycan array binding signal (z-score)", "setting": "[29]", "result": -0.755}, {"measurement": "glycan array binding signal (z-score)", "setting": "[30]", "result": 0.082}, {"measurement": "glycan array binding signal (z-score)", "setting": "[31]", "result": -0.338}, {"measurement": "glycan array binding signal (z-score)", "setting": "[32]", "result": 0.023}, {"measurement": "glycan array binding signal (z-score)", "setting": "[33]", "result": 1.72}, {"measurement": "glycan array binding signal (z-score)", "setting": "[34]", "result": -0.509}, {"measurement": "glycan array binding signal (z-score)", "setting": "[35]", "result": -0.513}, {"measurement": "glycan array binding signal (z-score)", "setting": "[36]", "result": -0.496}, {"measurement": "glycan array binding signal (z-score)", "setting": "[37]", "result": 0.514}]}
